Values quoted from earlier work in patent US11975106B2, “Uses of halogenated xanthenes in oncology and virology” (Provectus Pharmatech, Inc., priority 2020, dated 2024).
Where two headings read alike, the source gives them in different places. For at least one compound, name, drawing or mass did not settle the structure.

Test system: COVID-19
Conditions: cited from earlier work

For `C[C@@H]1C[C@H]2[C@@H]3CCC4=CC(=O)C=C[C@]4(C)[C@@]3(F)[C@@H](O)C[C@]2(C)[C@@]1(O)C(=O)CO` [dexamethasone], the reduction of deaths (COVID-19 patients mechanically ventilated) is listed as “one-third” and the reduction of deaths (patients receiving oxygen only) is listed as “one-fifth”.
